Results on 18 molecules are retold here after PubChem BioAssay AID214 (DTP/NCI, 2004).

The assay concerns B6C3F1 mice, colon carcinoma 38 s.c., T/C. Nature of the assay: NCI In Vivo Anticancer Drug Screen. Data for tumor model Colon Carcinoma 38 (subcutaneous) in B6C3F1 mice. To be noted: T/C endpoint: median tumor weight (est.), higher T/C = larger tumour; for T/C: evaluated on day 20. As for the experimental part:
The antitumor activity of compounds was measured in mice bearing transplantable tumors. Survival or tumor size were measured and the results are expressed as the measurement made in the treated group (T) divided by the measurement made in the vehicle treated control group (C). The tumor model used in this assay is Colon Carcinoma 38 (subcutaneous) in B6C3F1 mice

[1] abbreviates: dose: 32.0 mg/kg/injection, schedule: Q07DX002 (ip), vehicle: saline with Tween-80.
The mark [2] stands for this setting: dose: 64.0 mg/kg/injection, schedule: Q07DX002 (ip), vehicle: saline with Tween-80.
[3] abbreviates: dose: 16.0 mg/kg/injection, schedule: Q07DX002 (ip), vehicle: saline.
Setting [4] is: dose: 400.0 mg/kg/injection, schedule: Q07DX002 (ip), vehicle: Klucel (hydroxypropylcellulose) (HPC).
[5] abbreviates: dose: 800.0 mg/kg/injection, schedule: Q07DX002 (ip), vehicle: saline with Tween-80.
Setting [6] is: dose: 400.0 mg/kg/injection, schedule: Q07DX002 (ip), vehicle: saline.

The structures appear in SMILES notation. The list does not hold the whole screen: it is rich in T/C values a quarter to a half above the control, in often repeated tests (any T/C) and in doses without a T/C. Further doses and runs are listed elsewhere. T/C gives the treated animals as a percentage of the vehicle group. Schedule codes are those of the source, read here as Q, the interval in days (D) or hours (H), X, the number of doses. Some T/C values carry the count of animals alive at the toxicity check (mostly the fifth day); where none is given, no animal had died by that day. Some entries hold several experiments; the results are listed from low to high. Signs of the kind (2×) say how often a value occurs here. Some doses have a count of surviving animals in place of a T/C: the source files T/C as zero there, which appears to mark a toxic dose or a test without result, not a measured value. Survivors were counted at the toxicity check, usually on the fifth day, unless a day is given; later deaths do not show.

In the case of `CC1CCC(NC(=O)N(CCCl)N=O)CC1` (stereo not given), the T/C is 76, 81, 84, 91 (2×), 100, 108, 129, 139 % of control (dose: 4.0 mg/kg/injection, schedule: Q07DX002 (ip), vehicle: saline with Tween-80); 61, 67 [9 of 10 alive on day 20], 78, 89, 97, 103 [9 of 10 alive on day 20], 116, 121, 227 % of control (dose: 8.0 mg/kg/injection, schedule: Q07DX002 (ip), vehicle: saline with Tween-80); 18, 20, 40, 54, 64, 70, 73, 81, 145 % of control (dose: 16.0 mg/kg/injection, schedule: Q07DX002 (ip), vehicle: saline with Tween-80); 7, 12, 13, 21, 33, 63 (2×), 129 % of control under setting [1]; 28 [9 of 10 alive on day 20] and 42 % of control [8 of 10 alive on day 20] under setting [2]. Also, the survivor count is recorded as 4 of 10 on day 20 under setting [1]; 2 of 10 on day 20 (dose: 64.0 mg/kg/injection, schedule: Q07DX002 (ip), vehicle: Klucel (hydroxypropylcellulose) (HPC)); 0 of 10 on day 20, 1 of 10 on day 20, 2 of 10 on day 20, 4 of 10 on day 20, 5 of 10 on day 20, 6 of 10 on day 20 under setting [2].
As to `OC(C1CO1)C(O)C1CO1` (stereo not given), under “dose: 1.0 mg/kg/injection, schedule: Q07DX002 (ip), vehicle: saline”, the T/C is 148 % of control. For the same molecule, the survivor count under setting [3] was 6 of 10 on day 20.
On to `O=c1[nH]c(=O)n([C@H]2CCCO2)cc1F`, for which the survivor count (dose: 1280.0 mg/kg/injection, schedule: Q07DX003 (ip), vehicle: Klucel (hydroxypropylcellulose) (HPC)) is reported as 1 of 10 on day 20.
For the molecule `Cc1cc(Nc2ccc3c(c2)OCO3)c2cc3c(cc2n1)OCO3`, the T/C (dose: 50.0 mg/kg/injection, schedule: Q07DX002 (ip), vehicle: Klucel (hydroxypropylcellulose) (HPC)) is 136 % of control. In addition, the survivor count is given as 6 of 10 on day 20 (dose: 200.0 mg/kg/injection, schedule: Q07DX002 (ip), vehicle: Klucel (hydroxypropylcellulose) (HPC)) and 0 of 10 on day 20, 5 of 10 on day 20, 6 of 10 on day 20 under setting [4].
`CC[C@@H](C)[C@@H]1NC(=O)C(NC(=O)C(CC(C)C)N(C)C(=O)C2CCCN2C(=O)C(C)O)C(C)OC(=O)C(Cc2ccc(OC)cc2)N(C)C(=O)C2CCCN2C(=O)C(CC(C)C)NC(=O)C(C)C(=O)C(C(C)C)OC(=O)C[C@H]1O` (stereo not given in full): the T/C is, setting by setting: (dose: 75.0 micrograms/kg/injection, schedule: Q07DX002 (ip), vehicle: distilled water + alcohol) 134 % of control [9 of 10 alive on day 20]; (dose: 150.0 micrograms/kg/injection, schedule: Q07DX002 (ip), vehicle: distilled water + alcohol) 131 % of control; (dose: 300.0 micrograms/kg/injection, schedule: Q07DX002 (ip), vehicle: distilled water + alcohol) 126 % of control [9 of 10 alive on day 20]. For the setting “dose: 1200.0 micrograms/kg/injection, schedule: Q07DX002 (ip), vehicle: distilled water + alcohol”, the survivor count is listed as 1 of 10 on day 20.
For `Nc1ccc2ccc(NS(=O)(=O)N3CCCCC3)cc2c1`, the T/C (dose: 100.0 mg/kg/injection, schedule: Q07DX002 (ip), vehicle: saline with Tween-80) is 126 % of control. In addition, the survivor count by setting is: under setting [5], 5 of 10 on day 20; (dose: 1600.0 mg/kg/injection, schedule: Q07DX002 (ip), vehicle: saline with Tween-80) 0 of 10 on day 20.
In the case of `CCn1cnc2c(=S)nc[nH]c21`, the survivor count (dose: 400.0 mg/kg/injection, schedule: Q07DX002 (ip), vehicle: suspension in saline) was 5 of 10 on day 20.
`C#CCNC1=C(C)C(=O)C2=C(C1=O)[C@H](COC(N)=O)[C@]1(OC)[C@@H]3N[C@@H]3CN21`: where the note is “dose: 24.0 mg/kg/injection, schedule: Q07DX002 (ip), vehicle: distilled water + Tween-80”, the survivor count is listed as 0 of 10 on day 20.
Take `Cc1cc(N/N=C/c2ccccn2)nc2ccccc12`: the survivor count under setting [4] is on record as 1 of 9 on day 20.
On to `O=C(CCBr)N1CCN(C(=O)CCBr)CC1`, for which the survivor count by setting is: (dose: 320.0 mg/kg/injection, schedule: Q07DX002 (ip), vehicle: saline with Tween-80) 2 of 10 on day 20 and 5 of 10 on day 20; (dose: 640.0 mg/kg/injection, schedule: Q07DX002 (ip), vehicle: saline with Tween-80) 0 of 10 on day 20, 2 of 10 on day 20, 4 of 10 on day 20; (dose: 1280.0 mg/kg/injection, schedule: Q07DX002 (ip), vehicle: saline with Tween-80) 0 of 10 on day 20.
Consider `CC(=O)CC(=O)CCC(=O)O`, for which the survivor count (dose: 800.0 mg/kg/injection, schedule: Q07DX002 (ip), vehicle: saline) is 0 of 10 on day 20.
In the case of `O=C1N[C@@H]2C(=C[C@H](O)[C@@H](O)[C@H]2O)c2cc3c(c(O)c21)OCO3`, where the note is “dose: 2.5 mg/kg/injection, schedule: Q07DX002 (ip), vehicle: saline with Tween-80”, the T/C is 125 % of control.
`NC(=O)c1ccc[n+](Cc2c(Cl)cccc2Cl)c1`: the survivor count (dose: 100.0 mg/kg/injection, schedule: Q07DX002 (ip), vehicle: saline) is reported as 4 of 10 on day 20; the survivor count (dose: 200.0 mg/kg/injection, schedule: Q07DX002 (ip), vehicle: saline) was 0 of 10 on day 20; the survivor count under setting [6] was 4 of 10 on day 20.
With `COc1cccc(-c2cc(=O)c3cccc(CC(=O)O)c3o2)c1`, under setting [6], the survivor count is recorded as 3 of 10 on day 20.
For `CN(C)C1C(=O)C(C(=O)NP(=O)(NCCCO)N(CCCl)CCCl)=C(O)C2(O)C(=O)C3=C(O)c4c(O)cccc4C(C)(O)C3CC12` (stereo not given), the survivor count is on record as 5 of 10 on day 20 (dose: 400.0 mg/kg/injection, schedule: Q07DX002 (ip), vehicle: saline with Tween-80) and 1 of 10 on day 20 under setting [5].
Take `CO[C@@]12[C@H](COC(N)=O)C3=C(C(=O)C(C)=C(N)C3=O)N1C[C@@H]1N[C@@H]12`: the survivor count runs as follows: (dose: 4.0 mg/kg/injection, schedule: Q07DX002 (ip), vehicle: saline) 6 of 10 on day 20; (dose: 8.0 mg/kg/injection, schedule: Q07DX002 (ip), vehicle: saline) 0 of 10 on day 20 and 1 of 10 on day 20; under setting [3], 0 of 10 on day 20.
In the case of `O=C(C/C(=N\C(=S)Nc1cc(C(F)(F)F)ccc1Cl)NO)N1CCCC1`, the survivor count under setting [5] is 0 of 10 on day 20.
Turning to `CC[C@H](CC[C@@H](C)C1CC[C@H]2[C@@H]3CC=C4C[C@@H](OP(=O)(N5CC5)N5CC5)CC[C@]4(C)[C@H]3CC[C@]12C)C(C)C` (stereo not given in full), under “dose: 1800.0 mg/kg/injection, schedule: Q07DX002 (ip), vehicle: saline with Tween-80”, the survivor count was 5 of 10 on day 20.
